Data published in the supplement of paper PMC10849652.
The list shows a part of the results. Residues, ends and D or L forms follow the SMILES beside them. *: point of attachment. Cbz = O=C(OCc1ccccc1)*

The chains behind the UniProt entries cited, without tags or fusion partners. Where a name states a change or a piece, a line headed by the entry shows the natural chain unless it says otherwise.
UniProt P00568: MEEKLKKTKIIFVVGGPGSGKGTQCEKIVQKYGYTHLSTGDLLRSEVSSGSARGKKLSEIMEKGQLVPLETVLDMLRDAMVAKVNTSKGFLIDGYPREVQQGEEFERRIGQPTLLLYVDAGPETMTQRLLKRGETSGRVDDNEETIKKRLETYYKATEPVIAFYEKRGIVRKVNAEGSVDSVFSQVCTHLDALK
UniProt P23526: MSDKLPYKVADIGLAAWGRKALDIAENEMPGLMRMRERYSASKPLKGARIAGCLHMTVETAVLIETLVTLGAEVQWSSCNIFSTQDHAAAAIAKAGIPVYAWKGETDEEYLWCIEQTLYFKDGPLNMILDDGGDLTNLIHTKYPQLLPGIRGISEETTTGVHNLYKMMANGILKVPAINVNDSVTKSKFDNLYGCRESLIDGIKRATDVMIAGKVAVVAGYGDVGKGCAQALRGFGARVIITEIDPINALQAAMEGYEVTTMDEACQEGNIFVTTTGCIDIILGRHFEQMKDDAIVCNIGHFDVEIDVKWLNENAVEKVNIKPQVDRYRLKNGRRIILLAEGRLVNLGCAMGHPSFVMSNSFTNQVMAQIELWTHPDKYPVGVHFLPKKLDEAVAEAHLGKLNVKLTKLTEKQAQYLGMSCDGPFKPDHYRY
UniProt Q01432: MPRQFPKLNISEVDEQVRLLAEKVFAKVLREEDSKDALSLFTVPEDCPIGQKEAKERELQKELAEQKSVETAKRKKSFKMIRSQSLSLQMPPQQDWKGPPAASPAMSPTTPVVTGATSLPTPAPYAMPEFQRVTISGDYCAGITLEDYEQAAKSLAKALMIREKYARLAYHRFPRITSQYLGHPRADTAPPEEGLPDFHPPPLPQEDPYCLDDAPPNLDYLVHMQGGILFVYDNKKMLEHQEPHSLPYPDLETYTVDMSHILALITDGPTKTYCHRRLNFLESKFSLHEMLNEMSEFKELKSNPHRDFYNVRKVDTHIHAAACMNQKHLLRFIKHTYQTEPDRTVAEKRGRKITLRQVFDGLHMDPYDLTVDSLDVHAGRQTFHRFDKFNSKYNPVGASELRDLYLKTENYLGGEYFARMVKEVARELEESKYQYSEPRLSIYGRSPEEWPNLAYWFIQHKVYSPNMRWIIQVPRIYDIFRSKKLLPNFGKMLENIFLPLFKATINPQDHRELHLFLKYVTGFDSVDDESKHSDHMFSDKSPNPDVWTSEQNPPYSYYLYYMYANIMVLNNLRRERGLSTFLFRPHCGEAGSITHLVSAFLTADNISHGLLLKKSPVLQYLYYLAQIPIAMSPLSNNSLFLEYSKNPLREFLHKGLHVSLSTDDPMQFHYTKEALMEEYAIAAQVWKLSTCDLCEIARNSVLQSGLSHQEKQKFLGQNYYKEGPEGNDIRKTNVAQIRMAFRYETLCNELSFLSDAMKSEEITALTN
UniProt P27144: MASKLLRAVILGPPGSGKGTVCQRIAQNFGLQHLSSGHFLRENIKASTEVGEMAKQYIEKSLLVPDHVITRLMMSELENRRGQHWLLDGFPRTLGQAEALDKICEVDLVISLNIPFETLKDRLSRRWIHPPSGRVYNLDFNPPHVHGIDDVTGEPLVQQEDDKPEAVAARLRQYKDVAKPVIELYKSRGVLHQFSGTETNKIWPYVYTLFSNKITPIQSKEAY
UniProt P30837: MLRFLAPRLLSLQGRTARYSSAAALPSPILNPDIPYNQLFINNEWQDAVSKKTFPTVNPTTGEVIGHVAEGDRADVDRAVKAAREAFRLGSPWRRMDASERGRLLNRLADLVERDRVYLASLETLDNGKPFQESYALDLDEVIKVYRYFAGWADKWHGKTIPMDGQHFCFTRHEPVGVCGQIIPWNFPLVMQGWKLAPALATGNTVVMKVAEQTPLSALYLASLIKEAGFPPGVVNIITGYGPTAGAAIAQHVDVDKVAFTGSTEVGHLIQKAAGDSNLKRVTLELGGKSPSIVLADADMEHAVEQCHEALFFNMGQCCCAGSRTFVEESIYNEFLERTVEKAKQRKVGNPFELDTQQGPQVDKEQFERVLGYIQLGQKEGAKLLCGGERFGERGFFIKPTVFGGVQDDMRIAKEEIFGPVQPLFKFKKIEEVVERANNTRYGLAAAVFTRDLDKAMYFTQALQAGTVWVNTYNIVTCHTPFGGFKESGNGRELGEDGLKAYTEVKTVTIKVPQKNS
UniProt Q9UKV5, whole entry, looked up: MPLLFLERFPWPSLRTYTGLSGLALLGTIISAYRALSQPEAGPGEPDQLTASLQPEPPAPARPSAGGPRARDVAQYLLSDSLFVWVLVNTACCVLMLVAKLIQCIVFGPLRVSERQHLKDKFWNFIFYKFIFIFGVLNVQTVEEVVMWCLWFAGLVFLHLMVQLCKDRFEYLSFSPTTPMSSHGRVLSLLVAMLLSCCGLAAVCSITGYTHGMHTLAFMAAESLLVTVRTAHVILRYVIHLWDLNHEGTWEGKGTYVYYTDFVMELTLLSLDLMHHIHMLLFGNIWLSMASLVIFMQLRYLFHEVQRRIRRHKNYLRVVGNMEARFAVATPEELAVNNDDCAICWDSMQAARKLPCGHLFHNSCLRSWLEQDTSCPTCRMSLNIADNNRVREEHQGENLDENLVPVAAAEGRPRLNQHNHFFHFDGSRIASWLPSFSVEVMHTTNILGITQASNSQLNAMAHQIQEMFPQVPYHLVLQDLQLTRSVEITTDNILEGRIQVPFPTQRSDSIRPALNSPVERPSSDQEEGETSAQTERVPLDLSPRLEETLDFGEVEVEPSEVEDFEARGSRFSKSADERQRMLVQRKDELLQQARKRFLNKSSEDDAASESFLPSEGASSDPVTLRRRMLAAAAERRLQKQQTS
UniProt Q9NXW9: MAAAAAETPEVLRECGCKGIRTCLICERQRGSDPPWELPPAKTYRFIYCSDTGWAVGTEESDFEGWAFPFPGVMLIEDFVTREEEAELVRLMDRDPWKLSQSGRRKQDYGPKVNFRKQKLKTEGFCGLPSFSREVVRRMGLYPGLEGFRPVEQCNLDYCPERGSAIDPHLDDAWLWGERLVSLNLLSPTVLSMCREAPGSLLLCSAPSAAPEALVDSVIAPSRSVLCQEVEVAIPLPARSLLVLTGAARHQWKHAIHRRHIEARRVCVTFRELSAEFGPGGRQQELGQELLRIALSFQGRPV

Assays:
Experiment in all cases: log2 fold change, soluble protein after heating vs DMSO (PISA); higher = thermal stabilisation; K562 cells, 10 uM, 30 min; active = over 0.2 and 3.5 SD of the protein, either way, in both replicates (recomputed)
IRAK-1-4 Inhibitor I = compound: C1COCCN1CCN2C3=CC=CC=C3N=C2NC(=O)C4=CC(=CC=C4)[N+](=O)[O-] [IRAK-1-4 Inhibitor I]
How it was run: (§1)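 K562 cells at 2×10^6 cells/mL were treated for 30 min with 10 μM compound, and aliquots were heated for 3 min over 48°C-58°C before pooling. Extraction used PBS with 0.5% NP-40 at 4°C, and soluble protein was the supernatant after 21,000xg for 90 min, measured by TMTpro 16plex LC-MS/MS with channel sums equalised. Thermal stability values, relative to control samples and from duplicates, are log2 fold changes.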

ibrutinib = compound: C=CC(=O)N1CCC[C@@H](n2nc(-c3ccc(Oc4ccccc4)cc3)c3c(N)ncnc32)C1 [ibrutinib]
How it was run: as §1

[1] = compound: CC(=O)c1cnc2ccc(-c3cc(Cl)c(O)c(Cl)c3)nc2c1N[C@H]1CC[C@H](CN(C)C)CC1
How it was run: as §1

ralimetinib = compound: CC(C)(C)Cn1c(N)nc2ccc(-c3[nH]c(C(C)(C)C)nc3-c3ccc(F)cc3)nc21 [ralimetinib]
How it was run: as §1

[2] = compound: CC(C)(O)CC(=O)NCCn1ccc2ncnc(Nc3ccc(Oc4cccc(C(F)(F)F)c4)c(Cl)c3)c21
How it was run: as §1

[3] = compound: CC(C)C1=C2N=C(C=C(N2N=C1)NCC3=CC=CC=C3)NCCCCCCN
How it was run: as §1

[4] = compound: CC(C)C[C@@H](C=O)NC(=O)[C@H](CC(C)C)NC(=O)[C@H](CC(C)C)NC(=O)OCc1ccccc1
How it was run: as §1

pinometostat = compound: CC(C)N(C[C@H]1O[C@@H](n2cnc3c(N)ncnc32)[C@H](O)[C@@H]1O)[C@H]1C[C@@H](CCc2nc3cc(C(C)(C)C)ccc3[nH]2)C1 [pinometostat]
How it was run: as §1

[5] = compound: CC1=C(C(CC(=O)N1)C2=CC=C(C=C2)C(F)(F)F)C(=O)NC3=C(C=C4C(=C3)C=NN4)F
How it was run: as §1

[6] = compound: CC1=C(C2=C(C=C1)C(=O)C3=CC=CC=C3N2CCCN)C
How it was run: as §1

Target	log2 fold change (IRAK-1-4 Inhibitor I)	log2 fold change (ibrutinib)	log2 fold change [1]	log2 fold change (ralimetinib)	log2 fold change [2]	log2 fold change [3]	log2 fold change [4]	log2 fold change (pinometostat)	log2 fold change [5]	log2 fold change [6]
AK1 (UniProt P00568)	inactive: 0.028	inactive: 0.018	inactive: -0.023	inactive: 0.021	inactive: -0.067	inactive: -0.002	inactive: -0.032	inactive: -0.017	inactive: -0.007	inactive: 0.059
AHCY (UniProt P23526)	inactive: 0.007	inactive: 0.009	inactive: 0.034	inactive: 0.01	inactive: -0.013	inactive: 0.061	inactive: -0.029	inactive: -0.079	inactive: 0.015	inactive: -0.009
AMPD3 isoform 4 (UniProt Q01432)	inactive: 0.051	inactive: 0.026	inactive: 0.001	inactive: -0.079	inactive: -0.065	inactive: -0.074	inactive: -0.015	inactive: -0.044	inactive: 0.008	inactive: -0.011
AK4 (UniProt P27144)	inactive: -0.004	inactive: -0.008	inactive: -0.033	inactive: -0.097	inactive: -0.045	inactive: -0.025	inactive: -0.026	inactive: -0.051	inactive: -0.025	inactive: 0.115
ALDH1B1 (UniProt P30837)	inactive: 0.051	inactive: 0.031	inactive: -0.009	inactive: -0.004	inactive: -0.072	inactive: 0.132	inactive: -0.01	inactive: -0.022	–	inactive: 0.221
AGO3 (UniProt Q9H9G7)	inactive: -0.064	inactive: 0.052	inactive: -0.152	inactive: 0.024	inactive: 0.072	inactive: 0.094	inactive: 0.038	inactive: 0.014	inactive: -0.168	inactive: 0.197
AMFR (UniProt Q9UKV5)	inactive: -0.083	inactive: -0.039	inactive: 0.07	inactive: 0.117	inactive: -0.034	active: -0.375	inactive: 0.12	inactive: 0.077	–	inactive: 0.019
ALKBH4 (UniProt Q9NXW9)	inactive: 0.009	inactive: -0.126	inactive: -0.07	inactive: 0.017	inactive: -0.12	inactive: -0.086	inactive: -0.033	inactive: -0.065	–	inactive: -0.11
